About 22,000 (6.9%) of roughly 320,000 compounds were called active. The inconclusive results got no clear call from the source; some entries with a clear call stand among them for comparison. The call rests on the fitted dose curve; in most records, active means well fitted inhibition curve with a large enough effect; inconclusive means small, poorly fitted or top-dose-only effect, or another doubt; inactive means no such curve, though single readings can be large or run the other way. Potencies beside an inconclusive call are fits to weak or partial responses and may not hold up.
Test: Primary qHTS for delayed death inhibitors of the malarial parasite plastid, 96 hour incubation
Conditions: P. falciparum luciferase reporter growth; series mostly up to 28.7 µM; activity change, negative = inhibition: at the top concentration
How it was run: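 Plates of compound plus infected erythrocytes (2% hematocrit, 0.05% parasitemia final) incubate 96 hours, 37 C, 5% CO2. Detection reagent added; reduced luminescence from the parasites' luciferase reporter flags inhibition.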
On the % scale 0 is the no-effect control and ±100 the full control effect; potency means the concentration at half of the fitted maximal effect.

| SMILES | activity change, negative = inhibition | Potency |
| --- | --- | --- |
| COc1cc(OC)c(NC(=O)CCCn2c(=O)oc3ccccc32)cc1Cl | inactive: -5.02% | – |
| COc1cc(CNCCN(C)C)c(Br)cc1OCC(=O)NCc1ccccc1 | inactive: -2.75% | – |
| CC1CC2=C(C(=O)O1)C(c1ccc(Cl)cc1)Nc1ccccc1N2 (stereo not given) | – | inconclusive: 11.7 µM [inhibitor, single point] |
| Cc1nc2sc(-c3ccccc3)nn2c(=O)c1Br | inactive: -14.8% | – |
| CC(C)C(NC(=O)C12CC3CC(CC(C3)C1)C2)C(=O)N/N=C/C1=C(N2CCOCC2)C(=C\c2cccc([N+](=O)[O-])c2)/CC1 (stereo not given) | – | inconclusive: 10.4 µM [inhibitor, single point] |
| O=C(Cc1c(F)cccc1Cl)NNC(=O)Nc1ccc2c(c1)OCO2 | inactive: -25.1% | – |
| COc1ccc(-c2noc(N3CCCC(C(=O)Nc4cc(F)ccc4F)C3)n2)cc1 (stereo not given) | – | inconclusive: 18.5 µM [inhibitor, single point] |
| CCOC(=O)C1CCN(C(=O)C2c3ccccc3C(=O)N(C)C2c2ccc(OC)cc2)CC1 (stereo not given) | – | inconclusive: 2.94 µM [inhibitor, full curve] |
| Cn1nc(CC(=O)Nc2ccc3c(c2)OCCO3)c2ccccc2c1=O | – | inconclusive: 5.22 µM [inhibitor, partial curve, poor fit] |
| COc1cc(/C=C/C(=O)Nc2nnc(CC(C)C)s2)cc(OC)c1OC | – | inconclusive: 18.5 µM [inhibitor, single point] |
| CC(=O)NCCc1nc2ccccc2n1Cc1cc(C)ccc1C | – | inconclusive: 5.86 µM [inhibitor, partial curve] |
| CCc1cc(=O)oc2cc(OC(C)=O)cc(OC(C)=O)c12 | – | inconclusive: 18.5 µM [inhibitor, single point] |
| CCN(CC)c1ccc(S(=O)(=O)N2CCOCC2)cc1NC(=O)CN1CCN(Cc2ccccc2)CC1 | – | active: 10.4 µM |
| COc1ccc(C(CNC(=O)c2oc3ccccc3c2C)N2CCCC2)cc1 (stereo not given) | – | active: 9.28 µM |
| COc1cccc(-c2ocnc2C(=O)Nc2ccc(N3CCOCC3)cc2N2CCOCC2)c1 | – | inconclusive: 6.57 µM [inhibitor, partial curve] |
| Cc1nn(-c2ccccc2)c(C)c1NC(=O)c1cccs1 | – | inconclusive: 0.928 µM [inhibitor, partial curve, poor fit] |
| Cc1cc(C)nc(OC(C(=O)O)C(OCC(C)C)(c2ccccc2)c2ccccc2)n1 (stereo not given) | inactive: -5.75% | – |
| COC(=O)c1ccccc1NC(=O)CN1CCN(c2ccccn2)CC1 | – | inconclusive: 4.15 µM [inhibitor, full curve] |
| C=C1N(CCCCCC(=O)O)C(=O)OC12CCCCC2 | – | inconclusive: 0.37 µM [inhibitor, full curve, poor fit] |
| COC(=O)Cc1[nH]nc2c1C1(C(=O)N(Cc3ccccc3)c3ccccc31)C(C#N)=C(N)O2 (stereo not given) | inactive: 46.7% | – |
| COCc1ccc(C(=O)N2CCCC(Nc3ccc(F)c(F)c3)C2)s1 (stereo not given) | inactive: -5.86% | – |
| CCCN1C(=O)c2cccc3c(N4CCCCC4)ccc(c23)C1=O | – | active: 13.1 µM |
| O=S(=O)(c1cccc2cccnc12)N1CCN(c2ccccc2)CC1 | – | inconclusive: 10.4 µM [inhibitor, single point] |
| O=c1cc2c(nn1Cc1cccc([N+](=O)[O-])c1)-c1ccccc1CC2 | – | inconclusive: 10.4 µM [inhibitor, partial curve, poor fit] |

| SMILES | activity change, negative = inhibition | Potency |
| --- | --- | --- |
| CC(C)=C(NC(=O)c1ccccc1)C(=O)Nc1ccc(C(=O)O)cc1 | inactive: 14.1% | – |
| CCOc1cc(C(=O)OC(C)C(=O)Nc2ccc(NC(C)=O)cc2)ccc1OCC(=O)N1CCCCC1 (stereo not given) | – | inconclusive: 16.5 µM [inhibitor, partial curve, poor fit] |
| COC(=O)CCCC(=O)N1CCC(CCC(=O)NCc2ccc(F)cc2)CC1 | – | active: 14.7 µM |
| Nc1ccc(Cl)c[n+]1Cc1cccc2cccnc12 | – | inconclusive: 10.4 µM [inhibitor, single point] |
| Cc1ccc(NC(=O)CSCC(=O)N2c3ccccc3CCc3ccccc32)cc1 | – | inconclusive: 10.4 µM [inhibitor, partial curve, poor fit] |
| Cc1sc2ncnc(N[C@@H](Cc3c[nH]c4ccccc34)C(=O)O)c2c1C | inactive: 0% | – |
| CCCn1c(Nc2nc3ccccc3n2C)nc2ccccc21 | – | active: 7.38 µM |
| CCN(CC)S(=O)(=O)c1ccc(N2CCCC2)c(NC(=O)C2CSC3(C)CCC(=O)N23)c1 (stereo not given) | – | inconclusive: 10.4 µM [inhibitor, partial curve] |
| C#CCSc1n[nH]c(=O)n1-c1cccc(C(F)(F)F)c1 | inactive: 23.6% | – |
| C[C@@H]1O[C@@H](O[C@H]2C[C@@H](O)[C@@]3(CO)[C@H]4[C@H](O)C[C@]5(C)[C@@H](C6=CC(=O)OC6)CC[C@]5(O)[C@H]4CC[C@@]3(O)C2)[C@@H](O)[C@H](O)[C@H]1O | inactive: -2.47% | – |
| Cc1cc(C)c(C)c(S(=O)(=O)N2CCN(C(=S)NCC3CCCO3)CC2)c1C (stereo not given) | – | inconclusive: 7.38 µM [inhibitor, partial curve] |
| O=C(O)[C@@H]1CSC2c3ccccc3C(=O)N21 (stereo not given in full) | inactive: 14.4% | – |
| CC(C)CNS(=O)(=O)c1ccc(CCC(=O)O)cc1 | inactive: 18.5% | – |
| CCN(CC)S(=O)(=O)c1ccc(/C=C/C(=O)OCC(=O)Nc2ccc(S(N)(=O)=O)cc2)cc1 | – | inconclusive: 11.7 µM [inhibitor, single point] |
| NC(=O)CC1Nc2cccc3cccc(c23)NC1=O (stereo not given) | – | inconclusive: 11.7 µM [inhibitor, partial curve, poor fit] |
| CCN(CC)c1ccc(CNCc2cccs2)cc1 | inactive: -14.1% | – |
| COC(=O)C1(C)NC(c2cccs2)C2C(=O)N(c3ccc(F)cc3)C(=O)C21 (stereo not given) | – | inconclusive: 0.37 µM [inhibitor, partial curve, poor fit] |
| CSCCC(NC(=O)c1cc([N+](=O)[O-])cc([N+](=O)[O-])c1)c1nc2ccccc2[nH]1 (stereo not given) | – | inconclusive: 18.5 µM [inhibitor, single point] |
| O=C(CN(C(=O)CNC(=O)c1cccs1)c1ccccc1F)NC1CCCC1 | – | inconclusive: 18.5 µM [inhibitor, single point] |
| CCC(=O)NC1=C(Cl)C(=O)C(NC(=O)CC)=C(Cl)C1=O | – | active: 4.65 µM |
| COc1ccc(/C=C2/NC(=O)N(Cc3ccccc3F)C2=O)cc1OC | – | inconclusive: 18.5 µM [inhibitor, single point] |
| CC(C)CC(=O)Nc1ccc(C(=O)COC(=O)C2CCC2)cc1 | inactive: -10.1% | – |
| CCCOc1ccccc1OCC(=O)Nc1ccc(S(=O)(=O)N2CCCCC2)cc1 | – | active: 10.4 µM |
| O=C(NCCc1ccccc1C(F)(F)F)C1CCC(=O)N(CCCN2CCCC2=O)C1 (stereo not given) | – | active: 9.28 µM |

At a glance, four of the compounds above:

| SMILES | activity change, negative = inhibition | Potency |
| --- | --- | --- |
| Nc1ccc(Cl)c[n+]1Cc1cccc2cccnc12 | – | inconclusive: 10.4 µM [inhibitor, single point] |
| Cc1ccc(NC(=O)CSCC(=O)N2c3ccccc3CCc3ccccc32)cc1 | – | inconclusive: 10.4 µM [inhibitor, partial curve, poor fit] |
| Cc1sc2ncnc(N[C@@H](Cc3c[nH]c4ccccc34)C(=O)O)c2c1C | inactive: 0% | – |
| CCCn1c(Nc2nc3ccccc3n2C)nc2ccccc21 | – | active: 7.38 µM |

Next structures

| SMILES | activity change, negative = inhibition | Potency |
| --- | --- | --- |
| CCCC1NC(=S)N(C2CCCCC2)C1=O (stereo not given) | – | active: 2.94 µM |
| Cc1cc(F)ccc1NC(=S)NCCc1ccccc1 | – | inconclusive: 20.8 µM [inhibitor, single point] |
| O=C(CNC(=O)c1cccs1)N/N=C/c1cccc(Cl)c1 | – | inconclusive: 18.5 µM [inhibitor, single point] |
| Cc1cc(N2CCOCC2)n2cc(-c3ccccc3)nc2n1 | – | inconclusive: 0.0165 µM [inhibitor, full curve, poor fit] |
| O=C(CNC(=O)c1ccccc1Cl)N/N=C/C=C/c1ccccc1 | – | inconclusive: 4.65 µM [inhibitor, partial curve, poor fit] |
| COc1ccc(-n2c(C)cc(/C=N/Nc3nc(N4CCOCC4)nc(N4CCOCC4)n3)c2C)cc1 | – | inconclusive: 18.5 µM [inhibitor, single point] |
| Cc1c2cnn(CC(=O)NC3CCCC3)c(=O)c2c(C)n1Cc1ccccc1 | inactive: 21.4% | – |
| CCC(C)NC(=O)c1ccc(NC(=O)CC2SC(N3CCCCC3)=NC2=O)cc1 (stereo not given) | – | inconclusive: 11.7 µM [inhibitor, single point] |
| COc1ccc(N/C=C/C(=O)c2ccc(OC)c(OC)c2)cc1 | – | inconclusive: 10.4 µM [inhibitor, single point] |
| CC(C)CC(=O)Nc1ccc(C(=O)CN2CCN(c3ccc(O)cc3)CC2)cc1 | inactive: -10.9% | – |
| CCCCn1c(N)c(N(CC(C)C)C(=O)C2CCN(c3ncnc4sc(C)c(C)c34)CC2)c(=O)[nH]c1=O | – | active: 2.94 µM |
| C=C1CCC(C)C(C)(CCC2=CCOC2=O)C/C=C\C=C/1C(=O)O (stereo not given) | inactive: -10.5% | – |
| CCCCN(C(=O)c1c(CC)noc1C)c1c(N)n(CCCC)c(=O)[nH]c1=O | inactive: 36.7% | – |
| COc1ccc(-c2nc3cc(NC(=O)c4ccc5c(c4)OCO5)ccc3o2)cc1 | – | inconclusive: 1.85 µM [inhibitor, partial curve, poor fit] |
| Cc1cccc(NC(=O)CCn2nc(C)cc2C)c1 | – | inconclusive: 0.0033 µM [inhibitor, full curve, poor fit] |
| COc1ccccc1N(CC(=O)Nc1cc(C)on1)S(=O)(=O)c1cccc(C(F)(F)F)c1 | – | inconclusive: 18.5 µM [inhibitor, partial curve, poor fit] |
| O=C(NC(=S)NCCc1ccc(Cl)cc1)c1ccco1 | inactive: 1.81% | – |
| Cc1cccc(-c2nc(CS(=O)CC(=O)NC3CCCCC3)c(C)o2)c1 (stereo not given) | – | inconclusive: 11.7 µM [inhibitor, single point] |
| COc1cc(C)c(NC(=O)COc2cccc3c2OC(C)(C)C3)cc1OC | – | inconclusive: 2.94 µM [inhibitor, full curve, poor fit] |
| COc1ccc(OC)c(CCNC(=O)CCCC(=O)n2ncc3cc(C)ccc32)c1 | inactive: 4.66% | – |
| Cc1c(C(=O)NNC(=S)Nc2ccc(S(N)(=O)=O)cc2)oc2ccccc12 | – | inconclusive: 18.5 µM [inhibitor, single point] |
| CCN(c1ccccc1)S(=O)(=O)c1ccc(Cl)c(NC(=O)CSc2n[nH]c(N)n2)c1 | inactive: -11.5% | – |

Single records (already shown).
`Cc1cccc(-c2nc(CS(=O)CC(=O)NC3CCCCC3)c(C)o2)c1` (stereo not given) is listed as Potency: inconclusive: 11.7 µM [inhibitor, single point]
`Cc1c(C(=O)NNC(=S)Nc2ccc(S(N)(=O)=O)cc2)oc2ccccc12` is listed as Potency: inconclusive: 18.5 µM [inhibitor, single point]
